Results as given in paper PMC4148193, “Chromatin Insulator Factors Involved in Long-Range DNA Interactions and Their Role in the Folding of the Drosophila Genome” (PLoS Genetics, 2014).

The chains behind the UniProt entries cited, without tags or fusion partners. Where a name states a change or a piece, a line headed by the entry shows the natural chain unless it says otherwise.
UniProt Q24478: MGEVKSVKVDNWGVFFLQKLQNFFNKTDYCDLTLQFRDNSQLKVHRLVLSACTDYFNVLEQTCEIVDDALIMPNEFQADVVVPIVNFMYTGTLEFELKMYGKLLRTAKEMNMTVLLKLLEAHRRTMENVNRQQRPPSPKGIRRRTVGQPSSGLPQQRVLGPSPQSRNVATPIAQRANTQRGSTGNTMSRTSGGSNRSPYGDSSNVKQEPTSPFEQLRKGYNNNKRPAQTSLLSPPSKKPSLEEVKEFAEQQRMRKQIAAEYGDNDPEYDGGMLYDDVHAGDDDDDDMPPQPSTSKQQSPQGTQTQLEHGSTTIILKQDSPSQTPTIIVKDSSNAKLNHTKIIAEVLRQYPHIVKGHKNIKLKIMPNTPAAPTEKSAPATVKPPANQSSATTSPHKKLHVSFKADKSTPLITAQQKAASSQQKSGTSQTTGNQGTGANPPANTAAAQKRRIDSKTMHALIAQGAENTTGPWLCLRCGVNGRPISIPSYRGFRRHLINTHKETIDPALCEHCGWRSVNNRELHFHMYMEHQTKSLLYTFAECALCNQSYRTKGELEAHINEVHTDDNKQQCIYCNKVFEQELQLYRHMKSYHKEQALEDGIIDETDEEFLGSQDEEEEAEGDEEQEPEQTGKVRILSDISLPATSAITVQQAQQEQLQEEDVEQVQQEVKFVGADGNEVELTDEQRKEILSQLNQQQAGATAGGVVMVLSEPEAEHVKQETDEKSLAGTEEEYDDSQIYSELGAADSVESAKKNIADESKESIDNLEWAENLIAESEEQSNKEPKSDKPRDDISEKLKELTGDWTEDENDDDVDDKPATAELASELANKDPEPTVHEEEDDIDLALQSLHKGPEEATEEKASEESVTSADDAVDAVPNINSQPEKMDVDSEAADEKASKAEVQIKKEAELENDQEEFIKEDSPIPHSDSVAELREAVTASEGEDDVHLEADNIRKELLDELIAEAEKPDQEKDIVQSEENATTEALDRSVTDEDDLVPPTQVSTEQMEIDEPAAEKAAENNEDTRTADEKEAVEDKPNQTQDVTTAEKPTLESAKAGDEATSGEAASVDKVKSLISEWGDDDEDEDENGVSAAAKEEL

Assays:
CP190 = CP190 (UniProt Q24478); test: EMSA; conditions: 100-400 nM CP190; EMSA: 150 mM NaCl, 30 mM Tris/HCl pH 7.4, 5 mM mercaptoethanol (supershift: 10 min on ice); recombinant protein; residues 1-1096; protein details: N-term 6xHis; label: SYBR Safe stain; probe letters rebuilt from the primers and the genome; part of a longer molecule
Chromator [1] = biological target: T1, Chromator (UniProt Q86BS3); test: EMSA; conditions: 450-900 nM Chromator; EMSA: 150 mM NaCl, 30 mM Tris/HCl pH 7.4, 5 mM mercaptoethanol (supershift: 10 min on ice); recombinant protein; residues 1-926; protein details: N-term 6xHis; label: SYBR Safe stain; probe letters rebuilt from the primers and the genome; part of a longer molecule
T1 sequence (looked up): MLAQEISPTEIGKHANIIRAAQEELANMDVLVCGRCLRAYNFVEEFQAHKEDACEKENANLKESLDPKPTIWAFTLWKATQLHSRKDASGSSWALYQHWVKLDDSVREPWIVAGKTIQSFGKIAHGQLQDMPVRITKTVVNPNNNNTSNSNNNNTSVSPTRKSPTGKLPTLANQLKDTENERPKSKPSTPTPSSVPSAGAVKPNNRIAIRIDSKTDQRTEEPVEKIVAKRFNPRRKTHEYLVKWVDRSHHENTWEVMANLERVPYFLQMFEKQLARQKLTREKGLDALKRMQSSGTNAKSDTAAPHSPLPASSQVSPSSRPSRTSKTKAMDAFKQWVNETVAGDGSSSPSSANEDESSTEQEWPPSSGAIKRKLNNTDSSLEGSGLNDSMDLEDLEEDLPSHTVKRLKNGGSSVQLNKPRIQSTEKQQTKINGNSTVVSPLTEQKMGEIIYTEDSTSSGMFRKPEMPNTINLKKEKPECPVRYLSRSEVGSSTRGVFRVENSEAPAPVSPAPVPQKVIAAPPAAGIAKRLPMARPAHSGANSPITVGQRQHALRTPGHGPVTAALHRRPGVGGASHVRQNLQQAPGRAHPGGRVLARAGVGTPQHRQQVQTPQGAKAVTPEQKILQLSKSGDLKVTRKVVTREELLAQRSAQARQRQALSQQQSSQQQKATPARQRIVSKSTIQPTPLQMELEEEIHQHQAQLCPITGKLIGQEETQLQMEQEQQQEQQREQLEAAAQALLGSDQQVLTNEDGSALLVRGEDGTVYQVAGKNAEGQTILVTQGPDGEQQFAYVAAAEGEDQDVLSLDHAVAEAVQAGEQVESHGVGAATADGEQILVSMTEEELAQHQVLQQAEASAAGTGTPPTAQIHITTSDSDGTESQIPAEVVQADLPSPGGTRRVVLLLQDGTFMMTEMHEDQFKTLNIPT

BEAF32 (BEAF32B) = BEAF32 (BEAF32B) (UniProt Q94513); test: EMSA; conditions: 200 nM BEAF32, preferential shift; EMSA: 150 mM NaCl, 30 mM Tris/HCl pH 7.4, 5 mM mercaptoethanol (supershift: 10 min on ice); recombinant protein; residues 1-282; protein details: N-term MBP, C-term 6xHis; label: SYBR Safe stain; probe letters rebuilt from the primers and the genome; part of a longer molecule
Chromator [2] = biological target: T1, Chromator; test: fluorescence anisotropy; conditions: Hill n=2±0.2, one value given, both fragments bound with no specificity; FA/FCS: 30 mM Tris/HCl pH 7.5, 100 mM NaCl, 20 uM ZnSO4, 5 mM mercaptoethanol, 0.01 mg/ml BSA, 0.004% Tween20, 2.5 nM DNA; recombinant protein; residues 1-926; protein details: N-term 6xHis; label: 5'-Cy3B (Table S5: cy3) on forward strand

| Sequence | binding result (CP190) | binding result (Chromator [1]) | binding result (BEAF32 (BEAF32B)) | pKd (Chromator [2]) |
| --- | --- | --- | --- | --- |
| GGAAATCACGTAACATTCGCCGAACAGCTGGCGACCATTTATCGATAGCGATACTCTTTTGGCGCCTGGATCTATCGACACTATGGCCTGCAATGTGAACATCTAAGGCTGCCCCCACAGATAAATTTAAAGTAAACATAATATAGATATGCACTCGTTAAGCGAATTAAAATTAGTTTTGAAATGAAACAAAAAAATCTAGAATTATTGGAAATTCCAAAGTTCGTCTGATAAATTACGCATAAATACAATTAAAATAAATATGAATATATAAAAATTCCCAATATAAAGGATCCCAAATCCCTCTCAATTTTACCGTCATTCATATTTTTTGTAAATTAAGTTGGCAATTAAGAAAAATGTTTAGCACTACCTATCGGATGACAAGCGTGTCACGAAAATATCGATGCTATCGCGCTGACTTCTCAGCTCTAGCTAGCAGTGTCA (double strand) [DNAtudor restriction fragment 1627 bp] | binds | binds | binds |  |
| GGACAGGTATTGTGCCATACTGACCACATCGTCTTGGTCTATAAGCTCCACGACATCC (double strand) [DNANS] |  |  |  | 6.44 |

pKd: −log10 of the molar value. The exact form of at least one protein or probe is not confirmed. For some of these results: Tags and fusion partners may be left off the protein sequences shown.
